{"source": "PubChem BioAssay", "note": "The inconclusive results got no clear call from the source; some entries with a clear call stand among them for comparison. Active and inactive are the calls of the source.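 How the source made its calls: active means RAM network inhibition above 8.4% in each of two replicates, 3 SD over the compound average; inconclusive means above 8.4% inhibition in only one replicate; inactive means 8.4% inhibition or less in each replicate.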", "data": [{"assay": "RAM signaling pathway blockade in yeast – S. cerevisiae, Pdr1DBD-CYC8 efflux-inhibited sensitized strain, primary screen (AID 1298);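 further: 0% = DMSO untreated cells without growth and 100% = 10 µM 1-NA-PP1 full growth; higher means more yeast growth rescued from 5-FOA killing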", "settings": "S. cerevisiae cbk1-as DSE1-URA3 strain, 5-FOA growth OD615, 2 d; at 50 µM; active compounds read high", "values": [{"smiles": "O=C1CCCN1CCCNc1ncnc2c1cnn2-c1ccc(Cl)cc1", "RAM network inhibition": "inconclusive: 15.7%"}, {"smiles": "CC(C)Oc1ccc(NC(=O)Oc2ccccc2)cc1", "RAM network inhibition": "inconclusive: 8.21%"}, {"smiles": "O=C(c1cc(C2CC2)on1)N1CCN(c2ccc(F)cc2)CC1", "RAM network inhibition": "inconclusive: 11.3%"}, {"smiles": "CCOc1ccc(-c2nc(CSCC(=O)N3CCN(c4cccc(OC)c4)CC3)c(C)o2)cc1", "RAM network inhibition": "inconclusive: 11.2%"}, {"smiles": "Brc1ccc(-c2nnc3ccc(N4CCN(c5ccccc5)CC4)nn23)cc1", "RAM network inhibition": "inconclusive: 13.6%"}, {"smiles": "CCOC(=O)c1c(NC(C)=O)no[n+]1[O-]", "RAM network inhibition": "inactive: 5.03%"}, {"smiles": "COc1ccccc1N1CCN(C(=O)c2cc3c(-c4ccc(Cl)cc4)nn(C)c3s2)CC1", "RAM network inhibition": "inconclusive: 13.1%"}, {"smiles": "CCOc1ccccc1NC1c2ccccc2C(=O)N1c1ccc(C)cn1", "note": "(centres undefined)", "RAM network inhibition": "inconclusive: 12.8%"}, {"smiles": "Cc1ccc(-c2nn(-c3ccccc3)cc2C2SCC(=O)N2Cc2ccccc2)o1", "note": "(centres undefined)", "RAM network inhibition": "inconclusive: 16.9%"}, {"smiles": "O=C(NCc1ccc2c(c1)OCO2)c1nnc(Cc2ccc(F)cc2)o1", "RAM network inhibition": "inconclusive: 14.9%"}, {"smiles": "CC(C)COC(=O)C1C2C=CC3(CN(C(C)c4ccc(Br)cc4)C(=O)C13)O2", "note": "(centres undefined)", "RAM network inhibition": "inconclusive: 9.66%"}, {"smiles": "C=CCNc1ncnc2c1cnn2-c1ccc(Cl)cc1", "RAM network inhibition": "inconclusive: 11.9%"}, {"smiles": "COc1ccc(N2C(=O)CC(N3CCCC4CCCCC43)C2=O)cc1", "note": "(centres undefined)", "RAM network inhibition": "inconclusive: 10.7%"}, {"smiles": "COC(=O)C1=C(C)N(C)C(=O)NC1c1ccc(O)c(OC)c1", "note": "(centres undefined)", "RAM network inhibition": "inactive: 6.2%"}, {"smiles": "O=C(Nc1ccc(N2CCCC2)cc1)c1ccc(Br)o1", "RAM network inhibition": "inactive: 6.03%"}, {"smiles": "CCN1CCN(CC(=O)Nc2cccc(C)c2)C(=O)C1=O", "RAM network inhibition": "inconclusive: 12.6%"}, {"smiles": "Cc1ccc(CCNC(=O)C2CCCN2S(=O)(=O)c2ccc3c(c2)CCC(=O)N3)cc1", "note": "(centres undefined)", "RAM network inhibition": "inconclusive: 15.3%"}, {"smiles": "NC/C(=N\\O)c1ccc(Cl)cc1Cl", "RAM network inhibition": "inconclusive: 12.8%"}, {"smiles": "CCOC(=O)c1nc2ccccc2s1", "RAM network inhibition": "inactive: 1.61%"}, {"smiles": "Nc1ccc(S(=O)(=O)N2CCCc3ccccc32)cc1", "RAM network inhibition": "inconclusive: 12.6%"}, {"smiles": "Cc1ccc(Cl)cc1N1CCN(C(=O)C2CCN(c3nnc(-n4cccc4)s3)CC2)CC1", "RAM network inhibition": "inactive: 8.04%"}, {"smiles": "S=c1sc2c(N3CCOCC3)ncnc2n1-c1ccccc1", "RAM network inhibition": "inactive: 4.8%"}, {"smiles": "Cc1cc(NC(=O)CSc2nnc(Cn3c(=O)sc4ccccc43)n2-c2ccccc2C)no1", "RAM network inhibition": "inactive: 7.59%"}, {"smiles": "Cn1cccc1Cc1nnc(SCC(=O)Nc2ccc3c(c2)OCCO3)n1CCc1ccccc1", "RAM network inhibition": "inconclusive: 11.9%"}]}]}
